{"source": "PubChem BioAssay AID1259405 (NCATS, 2018)", "test": "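Mouse-designed siRNAs used to find CHO productivity engineering targets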 (primary screen)", "cells": "Chinese hamster CHO-K1 ovary cells with stable secreted eGFP expression", "knock-down reagent": "single siRNA against mouse genes, 0.8 pmol siRNA per well (2 µl of 400 nM stock)", "duration": "3 days", "measured": "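Percent of the per-plate non-targeting control median for intracellular GFP per well by laser scanning cytometry and for cell viability by ATP luminescence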", "direction": "GFP, % of control: higher = more GFP per well, higher productivity; viability (ATP), % of control: higher = more viable cells (more ATP)", "rule for the call": "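Called active when intracellular GFP, relative to negative control, is at or above 120%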", "note": "In all, the deposit lists about 50,000 reagents; this is a part drawn at random. About 4,000 of all reagents (8%) count as active. 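Mouse siRNA library applied to hamster cells; one well for each siRNA.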 A number with no mark means an inactive call. Reagents against one gene are numbered here."}
{"gene symbol": "Tardbp (TAR DNA binding protein)", "reagent no.": 1, "GFP, % of control": 61.2, "viability (ATP), % of control": 67.9}
{"gene symbol": "Tardbp (TAR DNA binding protein)", "reagent no.": 2, "GFP, % of control": 34, "viability (ATP), % of control": 44.5}
{"gene symbol": "Tardbp (TAR DNA binding protein)", "reagent no.": 3, "GFP, % of control": 72.1, "viability (ATP), % of control": 78.2}
{"gene symbol": "Ackr3 (atypical chemokine receptor 3)", "reagent no.": 1, "GFP, % of control": 53.7, "viability (ATP), % of control": 64.7}
{"gene symbol": "Ackr3 (atypical chemokine receptor 3)", "reagent no.": 2, "GFP, % of control": 73.4, "viability (ATP), % of control": 86.1}
{"gene symbol": "Ackr3 (atypical chemokine receptor 3)", "reagent no.": 3, "GFP, % of control": "132 (active)", "viability (ATP), % of control": 71.6}
{"gene symbol": "Rab37 (RAB37, member RAS oncogene family)", "reagent no.": 1, "GFP, % of control": 79.7, "viability (ATP), % of control": 55.3}
{"gene symbol": "Rab37 (RAB37, member RAS oncogene family)", "reagent no.": 2, "GFP, % of control": 102, "viability (ATP), % of control": 55.8}
{"gene symbol": "Rab37 (RAB37, member RAS oncogene family)", "reagent no.": 3, "GFP, % of control": 86.5, "viability (ATP), % of control": 75.5}
{"gene symbol": "Ccdc7a (coiled-coil domain containing 7A)", "reagent no.": 1, "GFP, % of control": 74.7, "viability (ATP), % of control": 74.2}
{"gene symbol": "Ccdc7a (coiled-coil domain containing 7A)", "reagent no.": 2, "GFP, % of control": 75, "viability (ATP), % of control": 47.3}
{"gene symbol": "Ccdc7a (coiled-coil domain containing 7A)", "reagent no.": 3, "GFP, % of control": 82.5, "viability (ATP), % of control": 90.5}
{"gene symbol": "Nudt21 (nudix hydrolase 21)", "reagent no.": 1, "GFP, % of control": 103, "viability (ATP), % of control": 89.7}
{"gene symbol": "Nudt21 (nudix hydrolase 21)", "reagent no.": 2, "GFP, % of control": 71.4, "viability (ATP), % of control": 54.4}
{"gene symbol": "Nudt21 (nudix hydrolase 21)", "reagent no.": 3, "GFP, % of control": 78.1, "viability (ATP), % of control": 94.1}

Reformatted: results already given
Ccdc7a (coiled-coil domain containing 7A) #2 → GFP, % of control: 75; viability (ATP), % of control: 47.3
Ccdc7a (coiled-coil domain containing 7A) #3 → GFP, % of control: 82.5; viability (ATP), % of control: 90.5

More entries:
{"gene symbol": "Ly6g5b (lymphocyte antigen 6 family member G5B)", "reagent no.": 1, "GFP, % of control": "131 (active)", "viability (ATP), % of control": 101}
{"gene symbol": "Ly6g5b (lymphocyte antigen 6 family member G5B)", "reagent no.": 2, "GFP, % of control": 94, "viability (ATP), % of control": 70.2}
{"gene symbol": "Epc2 (enhancer of polycomb homolog 2)", "reagent no.": 1, "GFP, % of control": 94.4, "viability (ATP), % of control": 85.4}
{"gene symbol": "Epc2 (enhancer of polycomb homolog 2)", "reagent no.": 2, "GFP, % of control": 80.1, "viability (ATP), % of control": 43.4}
{"gene symbol": "Epc2 (enhancer of polycomb homolog 2)", "reagent no.": 3, "GFP, % of control": 32.4, "viability (ATP), % of control": 63.6}
{"gene symbol": "Cerkl (ceramide kinase-like)", "reagent no.": 1, "GFP, % of control": 81.1, "viability (ATP), % of control": 78.4}
{"gene symbol": "Cerkl (ceramide kinase-like)", "reagent no.": 2, "GFP, % of control": 43.9, "viability (ATP), % of control": 63.7}
{"gene symbol": "Cerkl (ceramide kinase-like)", "reagent no.": 3, "GFP, % of control": 63.6, "viability (ATP), % of control": 89.1}
{"gene symbol": "Hcfc1r1 (host cell factor C1 regulator 1 (XPO1-dependent))", "reagent no.": 1, "GFP, % of control": 92, "viability (ATP), % of control": 102}
{"gene symbol": "Hcfc1r1 (host cell factor C1 regulator 1 (XPO1-dependent))", "reagent no.": 2, "GFP, % of control": 92.5, "viability (ATP), % of control": 81.7}
{"gene symbol": "Hcfc1r1 (host cell factor C1 regulator 1 (XPO1-dependent))", "reagent no.": 3, "GFP, % of control": 78.9, "viability (ATP), % of control": 78.3}
{"gene symbol": "Kir3dl1", "reagent no.": 1, "GFP, % of control": 62, "viability (ATP), % of control": 46.3}
{"gene symbol": "Kir3dl1", "reagent no.": 2, "GFP, % of control": 112, "viability (ATP), % of control": 39.4}
{"gene symbol": "Kir3dl1", "reagent no.": 3, "GFP, % of control": "123 (active)", "viability (ATP), % of control": 55.4}
{"gene symbol": "Matn3 (matrilin 3)", "reagent no.": 1, "GFP, % of control": 86.2, "viability (ATP), % of control": 133}
{"gene symbol": "Matn3 (matrilin 3)", "reagent no.": 2, "GFP, % of control": "129 (active)", "viability (ATP), % of control": 85}
{"gene symbol": "Doc2g (double C2, gamma)", "reagent no.": 1, "GFP, % of control": 52.1, "viability (ATP), % of control": 69.2}
{"gene symbol": "Doc2g (double C2, gamma)", "reagent no.": 2, "GFP, % of control": "136 (active)", "viability (ATP), % of control": 81.5}
{"gene symbol": "Doc2g (double C2, gamma)", "reagent no.": 3, "GFP, % of control": 40, "viability (ATP), % of control": 43.6}
{"gene symbol": "Or4k6 (olfactory receptor family 4 subfamily K member 6)", "reagent no.": 1, "GFP, % of control": 55.2, "viability (ATP), % of control": 90.3}
{"gene symbol": "Or4k6 (olfactory receptor family 4 subfamily K member 6)", "reagent no.": 2, "GFP, % of control": 93.7, "viability (ATP), % of control": 88.9}
{"gene symbol": "Or4k6 (olfactory receptor family 4 subfamily K member 6)", "reagent no.": 3, "GFP, % of control": 99.6, "viability (ATP), % of control": 61.2}
{"gene symbol": "Xpo4 (exportin 4)", "reagent no.": 1, "GFP, % of control": 45.5, "viability (ATP), % of control": 71.7}
{"gene symbol": "Xpo4 (exportin 4)", "reagent no.": 2, "GFP, % of control": 73.1, "viability (ATP), % of control": 76.4}
{"gene symbol": "Xpo4 (exportin 4)", "reagent no.": 3, "GFP, % of control": 56.4, "viability (ATP), % of control": 47.1}
